Assay results from the supplement of paper PMC12819154, “High-throughput peptide-centric local stability assay extends protein–ligand identification to membrane proteins, tissues and bacteria” (Nature Structural & Molecular Biology, 2025).
The list shows a part of the results. Most values lie at the level of the controls, where differences are scatter.

By UniProt entry, the sequences of proteins in these tests, tags left out. Where a name states a change or a piece, a line headed by the entry shows the natural chain unless it says otherwise.
UniProt Q8C761: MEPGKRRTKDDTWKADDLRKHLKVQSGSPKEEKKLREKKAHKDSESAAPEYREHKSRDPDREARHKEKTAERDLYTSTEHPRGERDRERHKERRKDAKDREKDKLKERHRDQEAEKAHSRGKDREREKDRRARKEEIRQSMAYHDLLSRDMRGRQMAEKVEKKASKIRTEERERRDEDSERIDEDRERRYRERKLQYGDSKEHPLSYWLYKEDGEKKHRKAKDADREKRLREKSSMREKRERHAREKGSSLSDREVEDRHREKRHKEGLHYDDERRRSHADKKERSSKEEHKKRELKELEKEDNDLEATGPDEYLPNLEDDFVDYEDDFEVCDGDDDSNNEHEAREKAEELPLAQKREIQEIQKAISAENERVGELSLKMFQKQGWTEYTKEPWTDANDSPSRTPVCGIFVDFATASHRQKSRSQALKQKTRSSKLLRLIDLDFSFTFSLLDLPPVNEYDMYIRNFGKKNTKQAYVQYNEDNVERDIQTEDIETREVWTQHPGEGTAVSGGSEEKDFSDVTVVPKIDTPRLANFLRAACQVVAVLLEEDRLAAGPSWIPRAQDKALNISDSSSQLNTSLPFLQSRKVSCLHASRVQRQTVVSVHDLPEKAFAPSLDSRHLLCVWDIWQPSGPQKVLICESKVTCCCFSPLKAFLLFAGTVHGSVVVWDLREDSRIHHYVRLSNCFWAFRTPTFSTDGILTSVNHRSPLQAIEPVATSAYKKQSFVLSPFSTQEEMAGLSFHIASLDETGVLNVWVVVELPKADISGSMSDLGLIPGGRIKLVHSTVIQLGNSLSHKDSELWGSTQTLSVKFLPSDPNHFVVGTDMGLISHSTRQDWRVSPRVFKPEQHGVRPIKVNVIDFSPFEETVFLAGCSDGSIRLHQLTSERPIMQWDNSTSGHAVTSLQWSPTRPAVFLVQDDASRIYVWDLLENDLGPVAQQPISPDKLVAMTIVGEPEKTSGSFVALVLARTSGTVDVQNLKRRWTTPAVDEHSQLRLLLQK
UniProt Q8BWN8: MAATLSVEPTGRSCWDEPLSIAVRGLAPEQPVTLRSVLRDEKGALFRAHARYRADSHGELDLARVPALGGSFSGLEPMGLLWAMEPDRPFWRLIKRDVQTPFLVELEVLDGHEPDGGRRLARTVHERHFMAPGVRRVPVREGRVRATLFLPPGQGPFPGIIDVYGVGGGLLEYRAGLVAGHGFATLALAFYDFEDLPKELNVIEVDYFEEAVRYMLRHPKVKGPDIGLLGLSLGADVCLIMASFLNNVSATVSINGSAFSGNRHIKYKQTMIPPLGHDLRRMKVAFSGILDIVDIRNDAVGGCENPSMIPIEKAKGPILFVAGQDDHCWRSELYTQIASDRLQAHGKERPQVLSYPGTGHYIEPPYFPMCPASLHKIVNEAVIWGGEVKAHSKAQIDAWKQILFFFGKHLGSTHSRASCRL
UniProt Q8BXB6: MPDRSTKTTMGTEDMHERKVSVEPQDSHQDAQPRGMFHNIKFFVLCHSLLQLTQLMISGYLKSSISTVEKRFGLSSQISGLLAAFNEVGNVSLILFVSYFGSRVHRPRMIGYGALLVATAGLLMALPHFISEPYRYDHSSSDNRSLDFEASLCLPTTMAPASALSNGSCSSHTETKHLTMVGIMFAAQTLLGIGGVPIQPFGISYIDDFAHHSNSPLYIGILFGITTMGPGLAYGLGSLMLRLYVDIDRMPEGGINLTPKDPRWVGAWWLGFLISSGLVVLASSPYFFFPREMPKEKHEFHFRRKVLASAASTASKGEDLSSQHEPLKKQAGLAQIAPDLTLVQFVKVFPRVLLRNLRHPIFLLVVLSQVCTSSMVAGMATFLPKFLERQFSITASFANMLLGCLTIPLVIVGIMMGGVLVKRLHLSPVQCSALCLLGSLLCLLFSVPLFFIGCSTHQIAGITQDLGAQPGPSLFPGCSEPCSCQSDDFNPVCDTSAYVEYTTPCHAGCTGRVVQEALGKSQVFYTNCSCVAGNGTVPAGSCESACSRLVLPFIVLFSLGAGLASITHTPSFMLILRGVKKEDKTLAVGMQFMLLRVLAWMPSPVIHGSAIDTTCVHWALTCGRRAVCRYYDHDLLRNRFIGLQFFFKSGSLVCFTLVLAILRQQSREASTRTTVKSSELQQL
UniProt Q8CAA7: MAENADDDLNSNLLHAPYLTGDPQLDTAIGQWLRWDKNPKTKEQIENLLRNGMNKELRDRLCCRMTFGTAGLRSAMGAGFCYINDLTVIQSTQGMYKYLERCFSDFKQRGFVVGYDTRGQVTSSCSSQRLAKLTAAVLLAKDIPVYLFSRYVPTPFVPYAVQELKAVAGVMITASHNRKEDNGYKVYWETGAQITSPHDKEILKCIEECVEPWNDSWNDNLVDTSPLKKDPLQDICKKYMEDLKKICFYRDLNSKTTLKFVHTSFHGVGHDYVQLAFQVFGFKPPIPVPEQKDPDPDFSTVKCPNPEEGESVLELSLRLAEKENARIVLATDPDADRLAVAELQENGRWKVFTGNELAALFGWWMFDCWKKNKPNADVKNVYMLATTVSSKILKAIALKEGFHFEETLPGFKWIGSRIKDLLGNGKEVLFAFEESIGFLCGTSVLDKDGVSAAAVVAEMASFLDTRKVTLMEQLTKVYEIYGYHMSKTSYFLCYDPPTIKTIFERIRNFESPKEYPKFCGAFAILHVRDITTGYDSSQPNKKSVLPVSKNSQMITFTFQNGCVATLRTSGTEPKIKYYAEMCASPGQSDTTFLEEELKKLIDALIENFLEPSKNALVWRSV
UniProt Q8BXA1: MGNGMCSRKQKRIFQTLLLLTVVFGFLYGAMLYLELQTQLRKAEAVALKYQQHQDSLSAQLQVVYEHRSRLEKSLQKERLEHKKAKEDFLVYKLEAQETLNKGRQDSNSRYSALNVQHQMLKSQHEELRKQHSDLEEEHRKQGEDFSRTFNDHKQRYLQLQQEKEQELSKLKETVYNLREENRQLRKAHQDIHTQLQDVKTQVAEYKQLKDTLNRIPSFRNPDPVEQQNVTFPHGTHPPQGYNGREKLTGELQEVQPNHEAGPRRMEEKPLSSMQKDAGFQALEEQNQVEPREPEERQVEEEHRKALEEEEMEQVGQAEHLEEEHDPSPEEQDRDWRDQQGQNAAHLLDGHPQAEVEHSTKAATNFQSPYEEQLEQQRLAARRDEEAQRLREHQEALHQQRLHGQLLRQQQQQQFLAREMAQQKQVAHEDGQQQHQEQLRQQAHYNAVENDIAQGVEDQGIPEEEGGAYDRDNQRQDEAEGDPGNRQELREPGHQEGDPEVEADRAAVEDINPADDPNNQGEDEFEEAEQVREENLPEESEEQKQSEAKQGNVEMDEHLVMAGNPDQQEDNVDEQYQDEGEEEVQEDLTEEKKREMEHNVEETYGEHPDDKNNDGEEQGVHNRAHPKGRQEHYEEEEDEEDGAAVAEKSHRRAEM
UniProt Q8C5D8, whole entry: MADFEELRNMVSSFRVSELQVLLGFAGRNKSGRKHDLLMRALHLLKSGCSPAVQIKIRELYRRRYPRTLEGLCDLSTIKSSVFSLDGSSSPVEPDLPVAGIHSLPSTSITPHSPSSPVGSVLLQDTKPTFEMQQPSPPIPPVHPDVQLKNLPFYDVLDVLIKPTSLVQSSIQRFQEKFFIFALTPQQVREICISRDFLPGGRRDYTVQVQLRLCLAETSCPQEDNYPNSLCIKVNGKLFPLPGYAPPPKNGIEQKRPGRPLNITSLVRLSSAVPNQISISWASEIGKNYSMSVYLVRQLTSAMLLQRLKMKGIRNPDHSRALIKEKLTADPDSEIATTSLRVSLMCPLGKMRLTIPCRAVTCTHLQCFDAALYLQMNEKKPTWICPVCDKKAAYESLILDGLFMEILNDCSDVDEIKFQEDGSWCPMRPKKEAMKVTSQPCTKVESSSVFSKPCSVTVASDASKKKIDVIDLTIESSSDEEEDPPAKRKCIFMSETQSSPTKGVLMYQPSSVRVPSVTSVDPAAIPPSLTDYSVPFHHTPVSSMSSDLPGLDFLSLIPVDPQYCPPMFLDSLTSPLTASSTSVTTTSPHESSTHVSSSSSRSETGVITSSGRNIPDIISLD
UniProt Q8C3Q9: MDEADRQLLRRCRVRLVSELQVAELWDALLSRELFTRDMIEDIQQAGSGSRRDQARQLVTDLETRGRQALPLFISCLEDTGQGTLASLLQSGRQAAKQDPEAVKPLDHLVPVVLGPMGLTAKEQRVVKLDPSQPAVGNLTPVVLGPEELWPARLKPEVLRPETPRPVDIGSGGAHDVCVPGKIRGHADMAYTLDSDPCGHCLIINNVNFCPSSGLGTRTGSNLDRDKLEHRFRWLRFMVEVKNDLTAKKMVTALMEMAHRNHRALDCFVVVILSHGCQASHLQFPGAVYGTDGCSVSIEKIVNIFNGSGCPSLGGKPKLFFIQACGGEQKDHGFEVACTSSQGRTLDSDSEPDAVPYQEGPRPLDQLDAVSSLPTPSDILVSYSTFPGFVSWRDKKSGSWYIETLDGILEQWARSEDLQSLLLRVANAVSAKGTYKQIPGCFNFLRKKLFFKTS
UniProt Q8BVY0: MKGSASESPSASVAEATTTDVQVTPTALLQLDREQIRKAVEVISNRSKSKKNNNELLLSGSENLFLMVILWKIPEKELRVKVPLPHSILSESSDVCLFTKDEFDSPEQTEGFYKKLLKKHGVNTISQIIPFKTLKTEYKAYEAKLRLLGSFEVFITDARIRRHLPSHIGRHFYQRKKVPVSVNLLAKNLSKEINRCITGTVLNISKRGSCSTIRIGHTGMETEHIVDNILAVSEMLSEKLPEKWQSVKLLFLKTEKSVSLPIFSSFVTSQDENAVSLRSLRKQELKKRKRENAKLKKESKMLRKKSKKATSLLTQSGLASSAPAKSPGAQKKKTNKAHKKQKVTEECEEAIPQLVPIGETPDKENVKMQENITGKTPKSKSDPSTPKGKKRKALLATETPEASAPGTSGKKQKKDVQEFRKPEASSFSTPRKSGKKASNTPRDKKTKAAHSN
UniProt Q8C156, whole entry: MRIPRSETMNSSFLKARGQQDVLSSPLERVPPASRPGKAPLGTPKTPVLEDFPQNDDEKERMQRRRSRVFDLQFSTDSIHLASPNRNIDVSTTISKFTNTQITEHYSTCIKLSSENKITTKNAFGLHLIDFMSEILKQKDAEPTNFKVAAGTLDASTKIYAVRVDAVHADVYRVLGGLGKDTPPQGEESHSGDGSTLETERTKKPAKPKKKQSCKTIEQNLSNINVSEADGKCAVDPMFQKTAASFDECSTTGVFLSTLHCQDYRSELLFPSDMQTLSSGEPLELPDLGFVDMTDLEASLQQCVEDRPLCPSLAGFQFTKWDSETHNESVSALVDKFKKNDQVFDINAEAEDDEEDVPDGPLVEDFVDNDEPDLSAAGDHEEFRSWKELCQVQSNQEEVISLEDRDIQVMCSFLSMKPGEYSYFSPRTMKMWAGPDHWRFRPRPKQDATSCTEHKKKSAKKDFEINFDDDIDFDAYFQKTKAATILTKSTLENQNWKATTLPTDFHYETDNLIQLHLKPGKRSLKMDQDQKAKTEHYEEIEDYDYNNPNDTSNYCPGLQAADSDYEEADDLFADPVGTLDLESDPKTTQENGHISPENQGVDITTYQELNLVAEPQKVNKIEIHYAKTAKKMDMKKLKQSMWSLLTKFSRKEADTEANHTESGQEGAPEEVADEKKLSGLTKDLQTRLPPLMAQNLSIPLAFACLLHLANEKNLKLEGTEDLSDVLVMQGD
UniProt Q8BWU5: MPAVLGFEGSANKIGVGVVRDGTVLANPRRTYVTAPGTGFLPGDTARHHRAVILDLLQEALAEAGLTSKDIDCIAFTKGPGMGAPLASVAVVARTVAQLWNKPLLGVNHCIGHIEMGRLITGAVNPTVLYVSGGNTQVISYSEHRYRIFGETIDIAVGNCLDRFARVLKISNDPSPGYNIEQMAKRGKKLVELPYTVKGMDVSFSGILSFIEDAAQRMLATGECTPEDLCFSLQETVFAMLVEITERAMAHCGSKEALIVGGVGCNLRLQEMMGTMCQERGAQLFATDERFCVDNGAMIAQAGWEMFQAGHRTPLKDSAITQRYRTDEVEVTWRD
UniProt Q8BWF0: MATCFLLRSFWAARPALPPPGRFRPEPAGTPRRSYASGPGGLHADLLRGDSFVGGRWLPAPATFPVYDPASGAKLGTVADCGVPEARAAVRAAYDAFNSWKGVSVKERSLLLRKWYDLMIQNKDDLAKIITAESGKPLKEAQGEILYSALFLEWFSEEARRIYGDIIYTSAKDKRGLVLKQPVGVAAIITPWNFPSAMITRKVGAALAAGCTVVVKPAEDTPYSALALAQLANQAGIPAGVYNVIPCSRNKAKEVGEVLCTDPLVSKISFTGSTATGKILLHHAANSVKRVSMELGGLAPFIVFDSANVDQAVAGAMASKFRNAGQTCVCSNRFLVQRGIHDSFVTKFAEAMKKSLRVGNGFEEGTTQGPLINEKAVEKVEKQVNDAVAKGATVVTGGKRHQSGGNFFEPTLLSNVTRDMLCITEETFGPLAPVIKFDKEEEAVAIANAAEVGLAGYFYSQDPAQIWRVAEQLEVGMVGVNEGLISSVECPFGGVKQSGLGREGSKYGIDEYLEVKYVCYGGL

Compound: CN[C@@H]1C[C@H]2O[C@@](C)([C@@H]1OC)n1c3ccccc3c3c4c(c5c6ccccc6n2c5c31)C(=O)NC4 [staurosporine]
Assay: log2 fold change of tryptic peptide abundance, ligand vs vehicle (limited proteolysis) (log2 ratio); higher = more trypsin-susceptible (destabilized)
Details: ligand concentration: 20 uM; sample: mouse liver crude lysate; replicate design: treated separately

UniProt Q8C761 (peptide sequence: EKAEELPLAQKR, peptide start residue: 346)
log2 fold change: 0.386

UniProt Q8BXV2 (peptide sequence: LEHLENQVR, peptide start residue: 226)
log2 fold change: 0.217

UniProt Q8C092 (peptide sequence: QASDLSLIDKESDDVLER, peptide start residue: 510)
log2 fold change: -0.0831

UniProt Q8BWN8 (peptide sequence: GPILFVAGQDDHCWR, peptide start residue: 316)
log2 fold change: -0.228

UniProt Q8C310 (peptide sequence: AVGPQLHR, peptide start residue: 705)
log2 fold change: -0.447

UniProt Q8C827 (peptide sequence: DCGKSFSYNSLLLQHK, peptide start residue: 415)
log2 fold change: -0.192

UniProt Q8C1Y8 (peptide sequence: EGEEENKILFYHPNEVEKNEK, peptide start residue: 36)
log2 fold change: -0.493

UniProt Q8BXB6 (peptide sequence: TTMGTEDMHER, peptide start residue: 8)
log2 fold change: -0.106

UniProt Q8C3X2 (peptide sequence: RPVDITPLEQR, peptide start residue: 47)
log2 fold change: -0.156

UniProt Q8CAA7 (peptide sequence: MTFGTAGLR, peptide start residue: 65)
log2 fold change: -0.426

UniProt Q8BXA1 (peptide sequence: QVEEEHR, peptide start residue: 298)
log2 fold change: -0.804

UniProt Q8C1B1 (peptide sequence: SQPGSSASSSSGVK, peptide start residue: 657)
log2 fold change: -0.456

UniProt Q8C033 (peptide sequence: KEDAIRAADR, peptide start residue: 775)
log2 fold change: -0.335

UniProt Q8C811 (peptide sequence: TLLTWGSLFGHR, peptide start residue: 25)
log2 fold change: 0.162

UniProt Q8C5W0 (peptide sequence: RSNSLPVKK, peptide start residue: 416)
log2 fold change: -0.412

UniProt Q8BZW8 (peptide sequence: LQHPLGVAWDEER, peptide start residue: 474)
log2 fold change: -0.238

UniProt Q8C5R2 (peptide sequence: NGDHVGVWHR, peptide start residue: 243)
log2 fold change: -0.519

UniProt Q8C7H1 (peptide sequence: DHTEGLSDKEQR, peptide start residue: 70)
log2 fold change: 0.28

UniProt Q8BVZ1 (peptide sequence: SMSQAMDMVLGK, peptide start residue: 161)
log2 fold change: 0.429

UniProt Q8C181 (peptide sequence: FAHPPKSCQVENGR, peptide start residue: 36)
log2 fold change: -0.161

UniProt Q8C5D8 (peptide sequence: SETGVITSSGR, peptide start residue: 602)
log2 fold change: 0.266

UniProt Q8C3Q9 (peptide sequence: MVTALMEMAHR, peptide start residue: 250)
log2 fold change: 0.851

UniProt Q8BVG4 (peptide sequence: KSSGLIVSK, peptide start residue: 42)
log2 fold change: -0.485

UniProt Q8BWS5 (peptide sequence: SENPPPSHLTSK, peptide start residue: 253)
log2 fold change: -0.192

UniProt Q8CAK3 (peptide sequence: STHTHSCSAADCYNRR, peptide start residue: 199)
log2 fold change: 0.687

UniProt Q8BVY0 (peptide sequence: KKVPVSVNLLAK, peptide start residue: 176)
log2 fold change: 0.212

UniProt Q8C4V4 (peptide sequence: YSLEQIHWEVSK, peptide start residue: 403)
log2 fold change: -0.245

UniProt Q8C1E7 (peptide sequence: LQANCTNSITR, peptide start residue: 43)
log2 fold change: -0.0821

UniProt Q8C156 (peptide sequence: VDAVHADVYR, peptide start residue: 164)
log2 fold change: 0.0359

UniProt Q8BXN7 (peptide sequence: LTTDHTPER, peptide start residue: 222)
log2 fold change: 0.154

UniProt Q8BWW4 (peptide sequence: ALFKNENCPK, peptide start residue: 213)
log2 fold change: -0.332

UniProt Q8BWU5 (peptide sequence: DIDCIAFTK, peptide start residue: 70)
log2 fold change: 0.346

UniProt Q8C3P7 (peptide sequence: NPEAALSPTFR, peptide start residue: 37)
log2 fold change: 0.118

UniProt Q8C1S0 (peptide sequence: HSPDHPGMGSSQASSSSSLR, peptide start residue: 225)
log2 fold change: -0.127

UniProt Q8BWF0 (peptide sequence: GATVVTGGKR, peptide start residue: 391)
log2 fold change: 0.134
